Data: paper PMC10460399 (Nature Communications, 2023)
Results are given in words; binding and its absence hold for the method and conditions named. Some results given as binding are weak or reduced against the parent protein; the word gives no strength.

Protein sequences, listed by entry. Tags and fused reporters are not part of them. Lines headed by an entry give the natural chain unless they say otherwise; changes in a name come on top.
UniProt A1ZAW0: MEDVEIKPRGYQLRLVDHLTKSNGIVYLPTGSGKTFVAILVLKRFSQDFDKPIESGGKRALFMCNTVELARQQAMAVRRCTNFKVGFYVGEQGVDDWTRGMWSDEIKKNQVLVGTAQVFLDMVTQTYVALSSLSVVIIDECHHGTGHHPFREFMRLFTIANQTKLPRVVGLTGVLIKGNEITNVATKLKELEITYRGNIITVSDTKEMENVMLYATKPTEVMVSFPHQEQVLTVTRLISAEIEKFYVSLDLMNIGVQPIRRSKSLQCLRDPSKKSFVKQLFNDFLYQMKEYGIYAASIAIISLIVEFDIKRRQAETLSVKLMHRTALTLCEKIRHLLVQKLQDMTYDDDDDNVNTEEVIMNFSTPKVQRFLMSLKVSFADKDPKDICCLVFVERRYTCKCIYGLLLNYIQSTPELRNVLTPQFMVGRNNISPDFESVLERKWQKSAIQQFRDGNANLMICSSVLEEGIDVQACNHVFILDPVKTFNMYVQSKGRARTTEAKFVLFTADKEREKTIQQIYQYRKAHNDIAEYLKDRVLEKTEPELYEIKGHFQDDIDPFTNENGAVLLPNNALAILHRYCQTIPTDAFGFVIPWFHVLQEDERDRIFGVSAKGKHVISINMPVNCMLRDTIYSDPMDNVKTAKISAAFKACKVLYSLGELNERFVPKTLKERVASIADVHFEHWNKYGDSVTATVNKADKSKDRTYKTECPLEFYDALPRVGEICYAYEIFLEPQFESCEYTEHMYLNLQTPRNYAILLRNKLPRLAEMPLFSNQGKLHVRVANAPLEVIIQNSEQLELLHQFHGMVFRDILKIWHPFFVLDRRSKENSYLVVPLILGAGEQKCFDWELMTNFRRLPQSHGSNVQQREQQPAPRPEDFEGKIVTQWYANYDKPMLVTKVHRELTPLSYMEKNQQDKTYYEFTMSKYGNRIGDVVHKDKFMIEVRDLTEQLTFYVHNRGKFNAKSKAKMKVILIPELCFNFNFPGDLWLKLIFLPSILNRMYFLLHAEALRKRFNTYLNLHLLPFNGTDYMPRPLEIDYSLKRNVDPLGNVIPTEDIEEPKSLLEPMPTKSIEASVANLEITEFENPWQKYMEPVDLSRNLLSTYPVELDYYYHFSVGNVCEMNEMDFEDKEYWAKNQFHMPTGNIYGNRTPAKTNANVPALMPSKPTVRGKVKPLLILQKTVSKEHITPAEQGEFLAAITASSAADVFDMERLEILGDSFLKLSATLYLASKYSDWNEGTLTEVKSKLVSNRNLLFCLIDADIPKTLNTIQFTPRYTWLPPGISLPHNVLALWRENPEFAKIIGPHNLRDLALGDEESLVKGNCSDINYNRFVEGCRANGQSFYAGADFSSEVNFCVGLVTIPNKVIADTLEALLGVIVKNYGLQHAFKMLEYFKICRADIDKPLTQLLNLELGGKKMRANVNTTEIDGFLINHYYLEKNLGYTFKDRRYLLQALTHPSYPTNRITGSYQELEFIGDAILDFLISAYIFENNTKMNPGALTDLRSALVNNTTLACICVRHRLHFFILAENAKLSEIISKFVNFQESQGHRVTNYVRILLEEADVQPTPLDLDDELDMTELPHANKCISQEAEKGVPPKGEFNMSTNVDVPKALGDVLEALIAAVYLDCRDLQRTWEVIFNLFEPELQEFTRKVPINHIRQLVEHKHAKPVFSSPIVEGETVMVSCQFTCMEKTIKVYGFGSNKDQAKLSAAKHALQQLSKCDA

Tests used:
[1] = molecular target: DmDcr-2, wild type, full length (Drosophila melanogaster) (UniProt A1ZAW0); assay: co-purification (Ni-NTA, anion exchange, 2nd Ni-NTA, SEC); DmDcr-2 and R2D2 co-expressed in sf9 cells by baculovirus; lysate in 150 mM NaCl, 20 mM Tris-HCl pH 8.0, 10% glycerol, 20 mM imidazole; last step Superdex 200 10/300 Increase
[2] = molecular target: DmDcr-2 mutant (D1217N/D1476N, DmDcr-2^DDNN) (Drosophila melanogaster) (UniProt A1ZAW0); assay: cryo-EM structure; DmDcr-2^DDNN/R2D2/Loqs-PD complex with 19-bp dsRNA 1:1, 25 °C for 2 h, diluted to 1 uM in SEC buffer with 5 mM ATP and 5 mM MgCl2; both purified
[3] = molecular target: DmDcr-2 mutant (D1217N/D1476N, DmDcr-2^DDNN) (Drosophila melanogaster) (UniProt A1ZAW0); assay: cryo-EM structure; DmDcr-2^DDNN/R2D2/Loqs-PD complex with 50-bp dsRNA 1:1, 25 °C for 2 h, diluted to 1 uM in SEC buffer with 5 mM ATP and 5 mM MgCl2; both purified

Measured: binding

B1: R2D2, wild type, full length (protein, UniProt Q9VLW8 1-311)
chain: MDNKSAVSALQEFCARTQINLPTYSFIPGEDGGYVCKVELLEIEALGNGRSKRDAKHLAASNILRKIQLLPGIHGLMKDSTVGDLDEELTNLNRDMVKELRDYCVRREMPLPCIEVVQQSGTPSAPEFVACCSVASIVRYGKSDKKKDARQRAAIEMLALISSNSDNLRPDQMQVASTSKLKVVDMEESMEELEALRRKKFTTYWELKEAGSVDHTGMRLCDRHNYFKNFYPTLKKEAIEAINSDEYESSKDKAMDVMSSLKITPKISEVESSSLVPLLSVELNCAFDVVLMAKETDIYDHIIDYFRTMLI
binds: all assays above
